Earlier results in patent US20070088086A1, “Method of using synthetic L-Se-methylselenocysteine as a nutriceutical and a method of its synthesis” (PharmaSe, Incorporated, priority 1999, published 2007).
Some entries share one result that the patent states for a list of compounds. For some assays here: For at least one compound, name, drawing or mass did not settle the structure.

Columns and labels:
human = settings: 70 kg human, official upper limit; cited from earlier work
cells in culture = settings: cited from earlier work

Row | SMILES | level above which selenium becomes a toxin (human) | higher concentration required to induce apoptosis and cell death, relative to selenite (cells in culture)
1 | O=[Se](O)O [selenite] | above 400 μg/day | 
2 | C[Se]C[C@H](N)C(=O)O [L-Se-methylselenocysteine] |  | 8-10 fold
